# Tested on: STHdh cell line model of Huntington's disease
# Test: Global (untargeted) lipid profiling by LC-MS, STHdh Q111 vs STHdh Q7 cells
# Type: cell-based, mouse
# Details: ratio of LC-MS feature level in STHdh Q7 vs STHdh Q111 cells; positive mode feature (mode_m/z_RT), mass matched to potential metabolites in the PPMI network
row,Compound,Q7/Q111
1,CCCCCCCC/C=C\CCCCCCCCCC(=O)OC[C@@H](COC(=O)CCCCCCCCCCCCCCC)OC(=O)CCCCCCCCCCCCCCCCC [TG(16:0/18:0/20:1(11Z))[iso6]],6.574
2,CCCCCCCC/C=C\CCCCCCCC(=O)O[C@H](COC(=O)CCCCCCCCCCCCCCC)COC(=O)CCCCCCCCCCCCCCCCCCC [TG(16:0/18:1(9Z)/20:0)[iso6]],6.574
3,CCCCCC/C=C\CCCCCCCC(=O)OC[C@H](COC(=O)CCCCCCCCCCCCCCCCCCC)OC(=O)CCCCCCCCCCCCCCCCC [TG(16:1(9Z)/18:0/20:0)[iso6]],6.574
4,CCCCCCCC/C=C\CCCCCCCC(=O)OC[C@@H](COC(=O)CCCCCCCCCCCCCCCCC)OC(=O)CCCCCCCCCCCCCCCCC [TG(18:0/18:0/18:1(9Z))[iso3]],6.574

# Same assay, conditions: ratio of LC-MS metabolite feature level, STHdh Q7 vs STHdh Q111 cells; feature (mode_m/z_RT) matched by mass to potential metabolites; P-value ≦0.01
row,Compound,Q7/Q111
1,CC(C)CCOC(=O)C(C)O (stereo not shown) [Isoamyl lactate],0.2033
2,CC(C)C(=O)O[C@@H]1C[C@H]2CC[C@]1(C)C2(C)C [Isobornyl isobutyrate],0.1814
3,COc1ccc(-c2oc3cc(O)cc(O)c3c(=O)c2O)cc1 [Kaempferide],6.631
4,C=CC(C)(CCC=C(C)C)OC(=O)CCC (stereo not shown) [Linalyl butyrate],0.1814
5,C=CC(C)(CCC=C(C)C)OC(=O)CCCCC (stereo not shown) [Linalyl hexanoate],0.3138
6,C=CC(C)(CCC=C(C)C)OC(=O)C(C)C (stereo not shown) [Linalyl isobutyrate],0.1814
7,COc1cc(O)c2c(=O)cc(-c3ccc(O)c(O)c3)oc2c1 [Luteolin 7-methyl ether],6.631
8,CC=CCCCCCCCC(=O)OC [Methyl 9-undecenoate],0.2707
9,C=CCCCCCCCCC(=O)OC [Methyl 10-undecenoate],0.2707
10,CCCCCCCCCCCCC/C=C/[C@@H](O)[C@H](CO)NC(=O)CCCCCCCCCCCCCCCCCCCCCCC [N-Lignoceroylsphingosine],9.407
11,CCCC(=O)OC/C=C(/C)CCC=C(C)C [Neryl butyrate],0.1814
12,CC1(C)CCC[C@]2(C)[C@H]3CC(=O)O[C@]3(C)CC[C@@H]12 [Norambreinolide],0.2629
13,CCCCCCCC(=O)OO [Peroxyoctanoic acid],0.2033
14,COc1ccc(-c2coc3cc(O)cc(O)c3c2=O)cc1O [Pratensein],6.631
15,COc1cc(O)cc2c1C(=O)c1c(O)cc(CO)cc1C2=O [Questinol],6.631
16,C=C(C)CCCC(C)CCOC(C)=O (stereo not shown) [Rhodinyl acetate],0.2707
17,COc1cc(O)c2c(=O)c(-c3ccc(O)c(O)c3)coc2c1 [Santal],6.631

row,Compound,Q7/Q111
1,CC1C=C(CCCCCCCCCCCCC=O)C(=O)O1 (stereo not shown) [Squamostanal A],0.1468
2,CC(=O)/C=C/C1C(C)(O)C(O)CC2C(C)(C)CCCC21C (stereo not shown) [Sterebin D],0.1468
3,COc1ccc(-c2cc(=O)c3c(O)cc(O)c(O)c3o2)cc1 [Takakin],6.631
4,"CC(C)COC(Cc1ccccc1)OCC(C)C [[2,2-bis(2-methylpropoxy)ethyl]benzene]",0.2629
5,CCCC(=O)OC(C)(C)C1CC=C(C)CC1 (stereo not drawn) [alpha-Terpineol butanoate],0.1814
6,CC/C=C\CCOC(=O)CCCCC [cis-3-Hexenyl hexanoate],0.2707
7,CCCCC/C=C\CCCOC(C)=O [cis-4-Decenyl acetate],0.2707
8,CCCCCCCCCCCCCCCCCCCCCCCC(=O)O [lignocerate],3.402
9,CCCCCCCC/C=C\CCCCCCCCCCCCCC(=O)O [nervonate],4.414
10,CC/C=C\C/C=C\C/C=C\C/C=C\C/C=C\CCCC(=O)O [timnodonate],2.729
11,CCCCCCCCC/C=C/C(=O)O [trans-Dodec-2-enoic acid],0.2707
12,CCCCCCCC1CCCC(=O)O1 (stereo not shown) [xi-5-Dodecanolide],0.2707
13,CCCCCCCCC1CCC(=O)O1 (stereo not shown) [xi-Dihydro-5-octyl-2(3H)-furanone],0.2707
14,CC(C)=CCC[C@@H](C)[C@H]1CC[C@H]2C3=C(CC[C@]12C)[C@@]1(C)CCC(=O)C[C@@H]1CC3 [zymosterol intermediate 2],0.1032
15,Hexyl 2E-hexenoate,0.2707
16,Terpinyl isobutyrate,0.1814

# From patent US20170046476A1, “SYSTEMS, APPARATUS, AND METHODS FOR ANALYZING AND PREDICTING CELLULAR PATHWAYS” (priority 2015, published 2017)
